Measurements: patent US7052850B2, “Isolated human EDG-4 receptor” (priority 1997, dated 2006)
At least one compound was matched to its structure with a doubt left.

Assays:
[1] = test system: Human Umbilical Vein Endothelial Cells (HUVEC); assay: IL-8 response in primary cultured HUVEC; format: cell-based; settings: 5 μM, 6 hr
Method: Cells: HUVEC (Clonetics, Cat. CC-2519) were passaged according to supplier's instructions and used at passage 3. Cells were plated at 20,000 cells/well into 24-well plates. […] LPA induced a 3-fold IL-8 increase at this concentration. […] As shown below in FIG. 23, three cloned edge receptors respond to LPA as an agonist, and all three appear to transduce NF-κB activation in an agonist-dependent manner.

HeLa cells = assay: IL-8 response (IL-8 ELISA) in HeLa cells; format: cell-based, human; settings: 6 hours, concentration series
Method: • Cells: HeLa (adenocarcinoma, human) • Media: DMEM/F12+10% FBS Adherent • 1) Cells were seeded at 0.2×10^6 cells/well in 6-well plates. • 2) Confluency of cells after 24–32 hrs was between 60–70%. B. Overnight Serum-Starvation • 1) Media was aspirated (no PBS wash). • 2) 1.5 ml 0.5% FBS media was added to each well. C. Treatments and Collection • 1) Made up all required solutions in 0.5% FBS media (control). Handling of […] for use in NF-κB experiments requires that sonication, commonly used to resuspend LPA, not be done; NF-κB may be activated by lipid peroxides created through vigorous frothing. Solutions:
D. Detection of Interleukin-8 (IL-8) using an IL-8 ELISA (Enzyme-Linked ImmunoSorbent Assay). • 1) The Quantikine Human IL-8 Immuno Assay Kit was obtained from R&D Systems (Cat. D8050). • 2) The kit and all samples were allowed to equlibrate to room temperature prior to use. • 3) All reagents were provided in the kit and prepared according to the instructions provided. • 4) The assay procedure was followed as recommended in the kit for cell culture supernatant samples. • 5) ELISA was performed on 50 μl samples of culture supernatant and duplicate samples were measured for each well. […]

Structure (SMILES): CCCCCCCCCCCCCCCCCCOCC(COP(=O)([O-])OCC[N+](C)(C)C)OC (centres unmarked) [Edelfosine]
- IL-8 levels, increase over untreated controls [1]: no responses
- IL-8 induction (HeLa cells): induced an IL-8 response in HeLa cells at non-cytotoxic concentrations
